Measurements published in article PMC8850458, “The AUTOTAC chemical biology platform for targeted protein degradation via the autophagy-lysosome system” (Nature Communications, 2022).
Results are given in words; binding and its absence hold for the method and conditions named. In cells and extracts the contact can be indirect.

Molecular target: T1, 12-mer V-BiP peptide (V-…-biotin)
T1 sequence (peptide, biotin, C-terminal): VEEDKKEDVGTK
Test: pull-down; biotinylated peptide on streptavidin agarose; 200 ug HEK293T extract in binding buffer (0.05% Tween-20, 10% glycerol, 0.2 M KCl, 20 mM HEPES pH 7.9), 4 C, 2 h; immunoblot; only the target purified

binding: no binding
Substance: p62/Sequestosome-1/SQSTM1 (from UniProt Q13501 1-440)
